We go through two molecules from paper PMC3577912.

By UniProt entry, the sequences of proteins in these tests, tags left out.
UniProt O81445: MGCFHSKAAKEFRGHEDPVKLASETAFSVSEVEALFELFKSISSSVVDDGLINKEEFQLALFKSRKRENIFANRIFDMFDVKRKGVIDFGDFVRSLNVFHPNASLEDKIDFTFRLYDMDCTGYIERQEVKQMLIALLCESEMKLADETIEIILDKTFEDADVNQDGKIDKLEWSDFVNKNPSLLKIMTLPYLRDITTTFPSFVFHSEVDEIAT

These are yes or no findings as the source states them, for the method shown. For part of these data: Binding seen in cells or lysates may run through a third protein. Some results given as binding are weak or reduced against the parent protein; the word gives no strength. For part of these data: Sequences can lack the tags named with a protein.

Test [1] deals with CBL1 (calcineurin B-like protein 1), bait fusion from pGBKT7-CBL1 (Arabidopsis thaliana) (UniProt O81445). Kind of test: two-hybrid; … system, yeast AH109; bait pGBKT7-CBL1, prey pGADT7-AKINβ1; growth on SD-Trp-Leu-Ade-His and β-galactosidase assay.
The target is the same in test [2]. Kind of test: two-hybrid; systematic yeast two-hybrid experiments of AKINβ1 with different AtCBL isoforms; data not shown.
Test [3] deals with YFPN-CBL1 (Arabidopsis thaliana) (UniProt O81445). Kind of test: split reporter; BiFC, YFPN-CBL1 and YFPC-AKINβ1 co-transformed into Arabidopsis protoplasts, confocal microscopy 16 h after incubation at room temperature.

B1: AKINβ1, regulatory β subunit of the SnRK1 complex, prey fusion from pGADT7-AKINβ1 (protein, UniProt Q84VQ1 1-283)
chain: MGNANGKDEDAAAGSGGADVTSSSARSNGGDPSARSRHRRPSSDSMSSSPPGSPARSPSPFLFAPQVPVAPLQRANAPPPNNIQWNQSQRVFDNPPEQGIPTIITWNQGGNDVAVEGSWDNWRSRKKLQKSGKDHSILFVLPSGIYHYKVIVDGESKYIPDLPFVADEVGNVCNILDVHNFVPENPESIVEFEAPPSPDHSYGQTLPAAEDYAKEPLAVPPQLHLTLLGTTEETAIATKPQHVVLNHVFIEQGWTPQSIVALGLTHRFESKYITVVLYKPLTR
As to B1, the binding result in test [1] and in test [2] was “binds” throughout.

B2: YFPC-AKINβ1 (protein, UniProt Q84VQ1 1-283)
chain: B1 chain
With B2, in test [3], the binding entry is recorded as “binds”.
